Assay results taken from patent publication US11579088B2, “Device and method for imaging shortwave infrared fluorescence” (Massachusetts Institute of Technology, priority 2016, dated 2023).

Test system: brain vasculature
Experiment: Noninvasive brain vasculature imaging through intact skin and skull (NIR vs SWIR)
Type: in vivo, mouse
Settings: for apparent vessel width (full width at half maximum of two-Gaussian fit): ICG 0.2 mg/kg; for image contrast (coefficient of variation: standard deviation of pixel intensity normalized to mean): 808 nm excitation

CC1(C)C(/C=C/C=C/C=C/C=C2\N(CCCCS(=O)(=O)O)c3ccc4ccccc4c3C2(C)C)=[N+](CCCCS(=O)(=O)[O-])c2ccc3ccccc3c21 [ICG, indocyanine green]
SWIR image contrast greater than NIR image contrast (ICG 0.2 mg/kg tail vein, SWIR vs NIR): ~50% | apparent vessel width (full width at half maximum of two-Gaussian fit) (NIR image, silicon camera): 430 μm | image contrast (coefficient of variation: standard deviation of pixel intensity normalized to mean) (NIR image, silicon camera, ICG 0.2 mg/kg tail vein): 0.20 | apparent vessel width (full width at half maximum of two-Gaussian fit) (SWIR image, InGaAs camera 1300-1620 nm): 210 μm | image contrast (coefficient of variation: standard deviation of pixel intensity normalized to mean) (SWIR image, InGaAs camera 1300-1620 nm, ICG 0.2 mg/kg tail vein): 0.29
